Compound in the assay: Cc1cc(ccc1-c1ccccc1)C(=O)N1CCCN(CC1)C(=O)CCl [compound 10]
As to the kind of experiment: probe-labelled cysteine peptide fold change vs DMSO (competition) (log2 fold change); higher = less target engagement (more negative = stronger competition). The note with it: THP-1, incubation time: 4 h.

The chains behind the UniProt entries cited, without tags or fusion partners. Where a name states a change or a piece, a line headed by the entry shows the natural chain unless it says otherwise.
UniProt Q14693: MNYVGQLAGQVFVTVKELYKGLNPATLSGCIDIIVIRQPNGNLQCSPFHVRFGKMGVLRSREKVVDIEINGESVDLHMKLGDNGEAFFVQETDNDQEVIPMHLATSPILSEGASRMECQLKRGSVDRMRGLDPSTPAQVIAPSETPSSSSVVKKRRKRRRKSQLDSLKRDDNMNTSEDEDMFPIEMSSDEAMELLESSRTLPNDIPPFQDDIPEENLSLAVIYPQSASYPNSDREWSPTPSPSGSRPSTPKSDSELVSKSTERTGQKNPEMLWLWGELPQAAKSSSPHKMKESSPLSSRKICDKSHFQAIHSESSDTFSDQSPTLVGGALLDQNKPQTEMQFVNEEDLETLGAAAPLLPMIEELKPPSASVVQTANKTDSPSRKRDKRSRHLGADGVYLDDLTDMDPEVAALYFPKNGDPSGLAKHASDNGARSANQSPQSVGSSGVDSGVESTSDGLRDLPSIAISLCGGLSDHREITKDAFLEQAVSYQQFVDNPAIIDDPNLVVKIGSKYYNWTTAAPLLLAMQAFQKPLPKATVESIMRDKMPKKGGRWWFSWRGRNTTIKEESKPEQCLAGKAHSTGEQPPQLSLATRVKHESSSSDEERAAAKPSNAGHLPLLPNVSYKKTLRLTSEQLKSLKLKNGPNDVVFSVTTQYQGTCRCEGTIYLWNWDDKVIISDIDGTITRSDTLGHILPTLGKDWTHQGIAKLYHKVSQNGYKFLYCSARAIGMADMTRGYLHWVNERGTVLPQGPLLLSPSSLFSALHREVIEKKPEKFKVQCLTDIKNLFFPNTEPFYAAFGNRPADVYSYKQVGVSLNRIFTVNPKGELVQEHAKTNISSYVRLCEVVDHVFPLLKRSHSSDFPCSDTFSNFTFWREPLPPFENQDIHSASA
UniProt Q96II8: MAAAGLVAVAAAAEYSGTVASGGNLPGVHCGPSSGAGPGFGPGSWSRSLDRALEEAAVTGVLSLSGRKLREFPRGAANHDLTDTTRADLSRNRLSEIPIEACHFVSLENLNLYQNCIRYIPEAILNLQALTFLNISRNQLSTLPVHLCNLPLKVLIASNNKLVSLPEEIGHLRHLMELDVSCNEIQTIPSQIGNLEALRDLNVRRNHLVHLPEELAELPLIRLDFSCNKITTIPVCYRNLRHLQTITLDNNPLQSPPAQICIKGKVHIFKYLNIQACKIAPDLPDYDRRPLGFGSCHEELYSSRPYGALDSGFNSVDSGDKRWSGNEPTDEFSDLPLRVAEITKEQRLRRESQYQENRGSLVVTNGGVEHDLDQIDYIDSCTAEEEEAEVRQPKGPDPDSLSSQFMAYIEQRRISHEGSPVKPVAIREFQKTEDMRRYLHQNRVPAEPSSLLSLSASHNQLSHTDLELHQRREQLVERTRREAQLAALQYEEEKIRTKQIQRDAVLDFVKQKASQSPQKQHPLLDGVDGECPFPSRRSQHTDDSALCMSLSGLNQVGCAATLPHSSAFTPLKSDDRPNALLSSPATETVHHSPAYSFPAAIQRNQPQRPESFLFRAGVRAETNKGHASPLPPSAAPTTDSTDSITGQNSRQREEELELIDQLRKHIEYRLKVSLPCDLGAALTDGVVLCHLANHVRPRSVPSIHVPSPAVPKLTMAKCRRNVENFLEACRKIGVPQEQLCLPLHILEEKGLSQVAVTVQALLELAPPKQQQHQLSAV
UniProt P48059, whole entry, looked up: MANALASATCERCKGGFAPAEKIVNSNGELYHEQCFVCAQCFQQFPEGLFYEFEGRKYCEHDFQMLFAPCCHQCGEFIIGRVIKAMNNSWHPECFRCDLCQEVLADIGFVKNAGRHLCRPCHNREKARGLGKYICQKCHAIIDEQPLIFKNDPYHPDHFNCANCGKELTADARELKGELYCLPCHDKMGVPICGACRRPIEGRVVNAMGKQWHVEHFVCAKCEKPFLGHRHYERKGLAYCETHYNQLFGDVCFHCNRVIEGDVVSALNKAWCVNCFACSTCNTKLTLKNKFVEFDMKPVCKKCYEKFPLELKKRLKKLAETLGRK
UniProt O75427: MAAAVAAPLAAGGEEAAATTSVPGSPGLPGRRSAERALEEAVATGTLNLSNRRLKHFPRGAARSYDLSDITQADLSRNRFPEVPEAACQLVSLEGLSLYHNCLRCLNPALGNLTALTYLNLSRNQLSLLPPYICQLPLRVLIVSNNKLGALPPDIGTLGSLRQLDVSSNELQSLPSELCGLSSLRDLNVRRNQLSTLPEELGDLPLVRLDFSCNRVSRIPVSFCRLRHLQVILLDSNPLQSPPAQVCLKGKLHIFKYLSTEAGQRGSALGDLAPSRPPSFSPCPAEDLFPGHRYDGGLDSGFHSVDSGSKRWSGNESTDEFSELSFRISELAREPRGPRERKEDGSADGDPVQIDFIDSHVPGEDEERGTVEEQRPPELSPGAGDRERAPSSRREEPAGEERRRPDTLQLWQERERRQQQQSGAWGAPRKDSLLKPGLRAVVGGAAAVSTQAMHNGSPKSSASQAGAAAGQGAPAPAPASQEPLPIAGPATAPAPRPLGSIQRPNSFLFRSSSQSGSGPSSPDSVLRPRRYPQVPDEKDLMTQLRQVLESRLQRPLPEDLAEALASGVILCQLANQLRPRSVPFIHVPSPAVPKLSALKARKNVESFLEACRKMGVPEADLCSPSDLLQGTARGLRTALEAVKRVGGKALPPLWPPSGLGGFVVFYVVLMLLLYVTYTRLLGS
UniProt P09382, whole entry, looked up: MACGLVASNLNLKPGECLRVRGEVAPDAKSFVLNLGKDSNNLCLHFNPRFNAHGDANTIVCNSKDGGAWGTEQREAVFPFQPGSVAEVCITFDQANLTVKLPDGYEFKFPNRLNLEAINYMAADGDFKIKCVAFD
UniProt Q8NF37: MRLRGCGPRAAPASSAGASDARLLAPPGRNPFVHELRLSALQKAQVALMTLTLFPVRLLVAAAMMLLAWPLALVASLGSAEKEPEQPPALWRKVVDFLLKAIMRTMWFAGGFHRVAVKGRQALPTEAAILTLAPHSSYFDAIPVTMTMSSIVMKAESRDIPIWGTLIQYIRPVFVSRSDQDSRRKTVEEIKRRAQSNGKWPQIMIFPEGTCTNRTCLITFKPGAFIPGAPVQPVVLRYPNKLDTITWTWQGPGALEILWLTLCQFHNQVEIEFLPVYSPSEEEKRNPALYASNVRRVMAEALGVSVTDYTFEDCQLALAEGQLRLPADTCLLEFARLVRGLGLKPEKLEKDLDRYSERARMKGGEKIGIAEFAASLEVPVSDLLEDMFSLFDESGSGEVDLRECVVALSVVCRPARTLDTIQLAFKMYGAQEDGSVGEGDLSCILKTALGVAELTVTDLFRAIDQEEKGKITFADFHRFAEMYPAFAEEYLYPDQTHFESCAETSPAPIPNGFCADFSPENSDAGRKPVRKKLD
UniProt Q8TDW0: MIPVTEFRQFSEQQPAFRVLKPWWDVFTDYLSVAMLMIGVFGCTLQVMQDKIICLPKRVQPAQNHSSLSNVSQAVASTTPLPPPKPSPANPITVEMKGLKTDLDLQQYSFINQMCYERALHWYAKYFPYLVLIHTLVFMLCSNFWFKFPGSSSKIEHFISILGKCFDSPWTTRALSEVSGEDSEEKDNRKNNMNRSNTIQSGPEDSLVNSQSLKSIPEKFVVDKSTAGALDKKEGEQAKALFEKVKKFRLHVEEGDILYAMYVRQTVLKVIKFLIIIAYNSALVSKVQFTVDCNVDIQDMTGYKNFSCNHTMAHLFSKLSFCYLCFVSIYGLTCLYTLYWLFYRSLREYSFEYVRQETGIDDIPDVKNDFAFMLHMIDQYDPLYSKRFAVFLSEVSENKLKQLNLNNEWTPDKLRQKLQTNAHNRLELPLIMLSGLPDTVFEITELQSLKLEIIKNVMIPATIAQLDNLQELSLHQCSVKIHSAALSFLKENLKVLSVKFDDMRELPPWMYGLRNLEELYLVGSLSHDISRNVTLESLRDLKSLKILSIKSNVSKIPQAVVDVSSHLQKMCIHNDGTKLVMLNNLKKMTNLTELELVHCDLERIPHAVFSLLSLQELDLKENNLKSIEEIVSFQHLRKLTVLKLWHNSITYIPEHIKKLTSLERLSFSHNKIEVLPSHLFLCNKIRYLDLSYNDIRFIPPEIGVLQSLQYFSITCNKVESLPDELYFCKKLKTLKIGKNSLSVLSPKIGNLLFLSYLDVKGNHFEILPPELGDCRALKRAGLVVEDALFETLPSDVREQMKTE
UniProt Q6UWE0: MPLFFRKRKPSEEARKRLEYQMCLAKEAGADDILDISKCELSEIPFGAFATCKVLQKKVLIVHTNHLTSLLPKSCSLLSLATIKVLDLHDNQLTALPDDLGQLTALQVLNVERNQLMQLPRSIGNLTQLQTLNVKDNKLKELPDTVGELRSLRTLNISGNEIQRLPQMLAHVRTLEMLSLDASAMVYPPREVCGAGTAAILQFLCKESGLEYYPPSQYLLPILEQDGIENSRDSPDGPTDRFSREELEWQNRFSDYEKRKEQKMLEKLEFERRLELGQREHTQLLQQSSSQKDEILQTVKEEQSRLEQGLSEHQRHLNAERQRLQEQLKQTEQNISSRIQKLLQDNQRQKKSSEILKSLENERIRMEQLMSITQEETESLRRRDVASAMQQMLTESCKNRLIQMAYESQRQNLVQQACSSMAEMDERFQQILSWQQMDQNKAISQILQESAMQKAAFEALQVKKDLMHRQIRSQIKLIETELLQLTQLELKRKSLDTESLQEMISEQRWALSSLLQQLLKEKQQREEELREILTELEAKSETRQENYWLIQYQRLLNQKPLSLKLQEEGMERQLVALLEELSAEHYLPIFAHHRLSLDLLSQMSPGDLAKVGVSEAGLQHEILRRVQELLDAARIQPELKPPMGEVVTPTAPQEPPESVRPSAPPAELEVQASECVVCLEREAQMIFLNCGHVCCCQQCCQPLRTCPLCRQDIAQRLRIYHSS
UniProt P02545: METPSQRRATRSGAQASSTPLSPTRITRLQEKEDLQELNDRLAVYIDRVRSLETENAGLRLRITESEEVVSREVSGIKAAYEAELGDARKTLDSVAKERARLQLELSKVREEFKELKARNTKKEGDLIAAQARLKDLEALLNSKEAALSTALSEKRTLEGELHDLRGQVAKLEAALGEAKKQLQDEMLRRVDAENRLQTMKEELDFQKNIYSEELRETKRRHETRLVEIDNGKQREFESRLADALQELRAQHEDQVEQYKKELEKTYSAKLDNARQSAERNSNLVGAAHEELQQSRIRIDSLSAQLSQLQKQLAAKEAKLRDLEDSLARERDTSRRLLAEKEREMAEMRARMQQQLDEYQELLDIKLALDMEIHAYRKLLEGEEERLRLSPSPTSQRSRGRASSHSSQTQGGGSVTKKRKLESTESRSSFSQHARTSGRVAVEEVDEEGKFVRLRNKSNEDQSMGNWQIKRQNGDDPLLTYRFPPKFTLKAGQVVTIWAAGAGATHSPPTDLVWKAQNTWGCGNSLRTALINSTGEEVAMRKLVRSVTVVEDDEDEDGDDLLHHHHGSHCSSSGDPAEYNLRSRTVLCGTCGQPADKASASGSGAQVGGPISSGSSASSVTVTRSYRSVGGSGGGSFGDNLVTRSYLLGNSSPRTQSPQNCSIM
UniProt O60711: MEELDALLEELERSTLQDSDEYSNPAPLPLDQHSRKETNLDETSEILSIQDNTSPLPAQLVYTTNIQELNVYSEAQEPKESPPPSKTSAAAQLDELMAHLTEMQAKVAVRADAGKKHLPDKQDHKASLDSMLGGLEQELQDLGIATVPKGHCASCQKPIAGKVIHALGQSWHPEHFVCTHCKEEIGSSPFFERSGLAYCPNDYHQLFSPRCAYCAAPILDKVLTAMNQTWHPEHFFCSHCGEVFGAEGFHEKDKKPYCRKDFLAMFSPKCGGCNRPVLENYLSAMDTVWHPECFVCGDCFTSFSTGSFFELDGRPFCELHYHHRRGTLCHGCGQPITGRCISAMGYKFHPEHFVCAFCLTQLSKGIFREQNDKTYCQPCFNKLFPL
UniProt P53671: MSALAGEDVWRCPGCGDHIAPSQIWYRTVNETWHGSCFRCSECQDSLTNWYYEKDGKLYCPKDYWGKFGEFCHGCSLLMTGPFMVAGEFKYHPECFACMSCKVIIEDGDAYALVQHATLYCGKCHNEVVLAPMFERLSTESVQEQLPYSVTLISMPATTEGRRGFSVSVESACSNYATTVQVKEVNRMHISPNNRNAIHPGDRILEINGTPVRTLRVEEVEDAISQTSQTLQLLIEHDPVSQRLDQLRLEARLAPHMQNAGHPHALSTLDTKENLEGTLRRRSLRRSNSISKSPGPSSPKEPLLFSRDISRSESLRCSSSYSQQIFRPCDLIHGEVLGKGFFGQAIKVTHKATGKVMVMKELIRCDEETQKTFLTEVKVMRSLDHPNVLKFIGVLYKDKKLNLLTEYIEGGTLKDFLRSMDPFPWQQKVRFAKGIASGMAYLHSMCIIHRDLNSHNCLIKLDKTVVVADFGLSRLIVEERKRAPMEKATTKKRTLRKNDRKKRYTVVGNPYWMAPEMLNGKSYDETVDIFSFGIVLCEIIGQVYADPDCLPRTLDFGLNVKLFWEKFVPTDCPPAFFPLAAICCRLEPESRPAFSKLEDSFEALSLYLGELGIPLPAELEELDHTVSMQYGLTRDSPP

The other results are listed elsewhere or left out.
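Further: competitive profiling in live THP-1 cells: cysteine peptides tagged with an iodoacetamide desthiobiotin (IA-DTB) probe, intensity after compound treatment relative to DMSO-treated cells.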

As for “LSP1_P33241_109_QQHEGAQGALDSGEPPQCR (UniProt P33241)”, the “probe-labelled cysteine peptide fold change” value was -0.117 (10 µM) and -0.236 (50 µM).

Consider “LTA4H_P09960_141_EHPYLFSQCQAIHCR (UniProt P09960)”, for which the “probe-labelled cysteine peptide fold change” value is, setting by setting: (10 µM) -0.0413; (50 µM) 0.126.

Turning to “LRR1_Q96L50_220_KLPATIGDLIHLQELNLNDNHLESFSVALCHSTLQK (UniProt Q96L50)”, the “probe-labelled cysteine peptide fold change” value runs as follows: (10 µM) 0.2; (50 µM) -0.439.

Consider “LONP1_P36776_682_ALCGLDESK (UniProt P36776)”, for which the “probe-labelled cysteine peptide fold change” value runs as follows: (10 µM) -0.137; (50 µM) 0.0146.

As for “LSM2_Q9Y333_26_NDLSICGTLHSVDQYLNIK (UniProt Q9Y333)”, the “probe-labelled cysteine peptide fold change” value is 0.109 (10 µM) and 0.253 (50 µM).

On to “LRRC47_Q8N1G4_367_LHEDLCEK (UniProt Q8N1G4)”, for which the “probe-labelled cysteine peptide fold change” value is -0.211 (10 µM) and -0.0285 (50 µM).

As to “LPIN1_Q14693_843_LCEVVDHVFPLLK (UniProt Q14693)”, the “probe-labelled cysteine peptide fold change” value is -0.0162 (10 µM) and 0.00701 (50 µM).

In the case of “LRCH3_Q96II8_689_VSLPCDLGAALTDGVVLCHLANHVRPR (UniProt Q96II8)”, the “probe-labelled cysteine peptide fold change” value is 0.176 (10 µM) and -0.433 (50 µM).

Regarding “LRPPRC_P42704_927_LQWFCDR (UniProt P42704)”, the “probe-labelled cysteine peptide fold change” value was -0.155 (10 µM) and -0.0944 (50 µM).

In the case of “LIMS1_P48059_281_AWCVNCFACSTCNTK (UniProt P48059)”, the “probe-labelled cysteine peptide fold change” value reads like this: (10 µM) 0.00276; (50 µM) 0.175.

Turning to “LRWD1_Q9UFC0_281_LEPLHFLQCHSK (UniProt Q9UFC0)”, the “probe-labelled cysteine peptide fold change” value was -0.0836 (10 µM) and -0.0432 (50 µM).

With “LRP1B_Q9NZR2_1079_DCEDGSDEK (UniProt Q9NZR2)”, the “probe-labelled cysteine peptide fold change” value was determined as 0.0727 (10 µM) and 0.503 (50 µM).

In the case of “LRCH4_O75427_571_LQRPLPEDLAEALASGVILCQLANQLRPR (UniProt O75427)”, the “probe-labelled cysteine peptide fold change” value runs as follows: (10 µM) 0.176; (50 µM) -0.0515.

As to “LIMS1_P48059_240_GLAYCETHYNQLFGDVCFHCNR (UniProt P48059)”, the “probe-labelled cysteine peptide fold change” value (10 µM) was determined as 0.0739 and the “probe-labelled cysteine peptide fold change” value (50 µM) came to 0.163.

On to “LRRC47_Q8N1G4_450_YLHLLDGNENYPCLVDADGDVISFPPITNSEK (UniProt Q8N1G4)”, for which the “probe-labelled cysteine peptide fold change” value reads like this: (10 µM) -0.235; (50 µM) -0.182.

“LGALS1_P09382_61_FNAHGDANTIVCNSK (UniProt P09382)”: the “probe-labelled cysteine peptide fold change” value is -0.0995 (10 µM) and -0.0373 (50 µM).

In the case of “LRPPRC_P42704_952_LFECDRDQMYYNLLK (UniProt P42704)”, the “probe-labelled cysteine peptide fold change” value is, setting by setting: (10 µM) 0.0596; (50 µM) 0.0169.

Consider “LTN1_O94822_237_LLCLLPDNELDSLEEK (UniProt O94822)”, for which the “probe-labelled cysteine peptide fold change” value reads like this: (10 µM) 0.119; (50 µM) 0.118.

For “LGALS1_P09382_61_FNAHGDANTIVCNSKDGGAWGTEQR (UniProt P09382)”, the “probe-labelled cysteine peptide fold change” value (10 µM) is -0.0368 and the “probe-labelled cysteine peptide fold change” value (50 µM) was -0.451.

With “LRRFIP2_Q9Y608_435_HMCSVLQHK (UniProt Q9Y608)”, the “probe-labelled cysteine peptide fold change” value (10 µM) amounted to 0.0226 and the “probe-labelled cysteine peptide fold change” value (50 µM) was -0.0546.

As for “LPCAT1_Q8NF37_216_TCLITFKPGAFIPGAPVQPVVLR (UniProt Q8NF37)”, the “probe-labelled cysteine peptide fold change” value was determined as 0.0803 (10 µM) and 0.0258 (50 µM).

For the target “LGALS1_P09382_43_DSNNLCLHFNPR (UniProt P09382)”, the “probe-labelled cysteine peptide fold change” value reads like this: (10 µM) 0.0679; (50 µM) 0.0272.

On to “LGALS1_P09382_17_ACGLVASNLNLKPGECLR (UniProt P09382)”, for which the “probe-labelled cysteine peptide fold change” value was found to be 0.184 (10 µM) and 0.0681 (50 µM).

On to “LILRB4_Q8NHJ6_144_SVTLLCQSR (UniProt Q8NHJ6)”, for which the “probe-labelled cysteine peptide fold change” value is -0.108 (10 µM) and 0.082 (50 µM).

In the case of “LRCH4_O75427_224_IPVSFCR (UniProt O75427)”, the “probe-labelled cysteine peptide fold change” value came out at 0.0929 (10 µM) and 0.0728 (50 µM).

For the target “LRPPRC_P42704_413_EVQMHSFPLQFTLHCALLANK (UniProt P42704)”, the “probe-labelled cysteine peptide fold change” value is -0.0822 (10 µM) and 0.0124 (50 µM).

On to “LPP_Q93052_524_SLDGIPFTVDAGGLIHCIEDFHK (UniProt Q93052)”, for which the “probe-labelled cysteine peptide fold change” value turned out to be 0.00357 (10 µM) and 0.0957 (50 µM).

For the target “LIG1_P18858_280_NNYHPVEDACWKPGQK (UniProt P18858)”, the “probe-labelled cysteine peptide fold change” value is, setting by setting: (10 µM) -0.214; (50 µM) -0.0348.

Consider “LETM1_O95202_379_ELQAACR (UniProt O95202)”, for which the “probe-labelled cysteine peptide fold change” value by setting is: (10 µM) 0.149; (50 µM) 0.0896.

For the target “LEO1_Q8WVC0_530_ILPMAGRDPECQR (UniProt Q8WVC0)”, the “probe-labelled cysteine peptide fold change” value (10 µM) is -0.112 and the “probe-labelled cysteine peptide fold change” value (50 µM) was -0.254.

“LPCAT1_Q8NF37_211_WPQIMIFPEGTCTNR (UniProt Q8NF37)”: the “probe-labelled cysteine peptide fold change” value runs as follows: (10 µM) 0.0371; (50 µM) -0.0848.

For the target “LRMP_Q12912_264_LLESLTPLCEDDNQAQEIIK (UniProt Q12912)”, the “probe-labelled cysteine peptide fold change” value was -0.074 (10 µM) and 0.305 (50 µM).

With “LSM7_Q9UK45_85_GTSVVLICPQDGMEAIPNPFIQQQDA (UniProt Q9UK45)”, the “probe-labelled cysteine peptide fold change” value was 0.204 (10 µM) and -0.291 (50 µM).

For “LRRC8C_Q8TDW0_682_IEVLPSHLFLCNK (UniProt Q8TDW0)”, the “probe-labelled cysteine peptide fold change” value (10 µM) was 0.106 and the “probe-labelled cysteine peptide fold change” value (50 µM) amounted to 0.334.

Take “LRRC57_Q8N9N7_128_TLSLSGNQLGALPPQLCSLR (UniProt Q8N9N7)”: the “probe-labelled cysteine peptide fold change” value (10 µM) was found to be 0.199 and the “probe-labelled cysteine peptide fold change” value (50 µM) was 0.297.

Consider “LRBA_P50851_2675_CSGIGDNPGSETAAPR (UniProt P50851)”, for which the “probe-labelled cysteine peptide fold change” value was -0.179 (10 µM) and -0.363 (50 µM).

Consider “LIG3_P49916_499_KCPNGMFSEIKYDGER (UniProt P49916)”, for which the “probe-labelled cysteine peptide fold change” value (10 µM) stood at 0.318 and the “probe-labelled cysteine peptide fold change” value (50 µM) amounted to 0.638.

On to “LRCH3_Q96II8_182_HLMELDVSCNEIQTIPSQIGNLEALR (UniProt Q96II8)”, for which the “probe-labelled cysteine peptide fold change” value was -0.231 (10 µM) and -0.12 (50 µM).

On to “LRPPRC_P42704_930_CVANNQVETLEK (UniProt P42704)”, for which the “probe-labelled cysteine peptide fold change” value is, setting by setting: (10 µM) 0.012; (50 µM) -0.083.

As for “LRSAM1_Q6UWE0_193_EVCGAGTAAILQFLCK (UniProt Q6UWE0)”, the “probe-labelled cysteine peptide fold change” value turned out to be 0.0137 (10 µM) and 0.149 (50 µM).

Take “LMNA_P02545_522_AQNTWGCGNSLR (UniProt P02545)”: the “probe-labelled cysteine peptide fold change” value is 0.00905 (10 µM) and -0.187 (50 µM).

Turning to “LRRC8C_Q8TDW0_599_MTNLTELELVHCDLER (UniProt Q8TDW0)”, the “probe-labelled cysteine peptide fold change” value was 0.152 (10 µM) and 0.204 (50 µM).

On to “LRPPRC_P42704_130_SCGSLLPELK (UniProt P42704)”, for which the “probe-labelled cysteine peptide fold change” value (10 µM) was 0.114 and the “probe-labelled cysteine peptide fold change” value (50 µM) came out at 0.459.

For “LMAN1_P49257_230_NDYEFCAK (UniProt P49257)”, the “probe-labelled cysteine peptide fold change” value by setting is: (10 µM) 0.239; (50 µM) 0.703.

For the target “LMAN1_P49257_190_NNPAIVIIGNNGQIHYDHQNDGASQALASCQR (UniProt P49257)”, the “probe-labelled cysteine peptide fold change” value runs as follows: (10 µM) -0.101; (50 µM) 0.195.

With “LRPPRC_P42704_113_VFNDTCR (UniProt P42704)”, the “probe-labelled cysteine peptide fold change” value is, setting by setting: (10 µM) -0.111; (50 µM) -0.0837.

As for “LPXN_O60711_152+155_GHCASCQKPIAGK (UniProt O60711)”, the “probe-labelled cysteine peptide fold change” value runs as follows: (10 µM) -0.235; (50 µM) -0.711.

As to “LIMK1_P53667_466_DLNSHNCLVR (UniProt P53667)”, the “probe-labelled cysteine peptide fold change” value reads like this: (10 µM) 0.00616; (50 µM) -0.134.

Take LSM12_Q3MHD2_20_TCQEQR (UniProt Q3MHD2): the “probe-labelled cysteine peptide fold change” value was 0.442 (10 µM) and 0.902 (50 µM).

Regarding “LMNA_P02545_591_TVLCGTCGQPADK (UniProt P02545)”, the “probe-labelled cysteine peptide fold change” value is -0.159 (10 µM) and -0.174 (50 µM).

Consider “LPXN_O60711_358_FHPEHFVCAFCLTQLSK (UniProt O60711)”, for which the “probe-labelled cysteine peptide fold change” value reads like this: (10 µM) -0.06; (50 µM) -0.732.

For “LRRC41_Q15345_170_QLTICNMLQGATELVAEPNRR (UniProt Q15345)”, the “probe-labelled cysteine peptide fold change” value reads like this: (10 µM) -0.0651; (50 µM) -0.636.

Take “LIMK2_P53671_365_CDEETQK (UniProt P53671)”: the “probe-labelled cysteine peptide fold change” value reads like this: (10 µM) -0.154; (50 µM) -0.0694.

In the case of “LPXN_O60711_178_VIHALGQSWHPEHFVCTHCK (UniProt O60711)”, the “probe-labelled cysteine peptide fold change” value is, setting by setting: (10 µM) 0.187; (50 µM) -0.0881.

Source of the values: the supplement of paper PMC12067093, “Discovery and optimisation of a covalent ligand for TRIM25 and its application to targeted protein ubiquitination” (Chemical Science, 2025).
